According to PubChem BioAssay AID192 (DTP/NCI, 2004):
The list does not hold the whole screen: it is rich in T/C values a quarter to a half above the control, in often repeated tests (any T/C) and in doses without a T/C. Other doses and runs of a compound stand elsewhere. T/C: endpoint of the treated group in % of that of the vehicle group. Some entries give survivors of the animals treated and no T/C: the source files T/C as zero there, which appears to mark a toxic dose or a test without result, not a measured value. Some survivor counts are full or nearly so, which does not show that the dose was tolerated: the source hardly ever lists a survival T/C far under the control, and the zero likely stands for such cases as well. Survivors were counted at the toxicity check, usually on the fifth day, unless a day is given; later deaths do not show. Schedule codes are those of the source, read here as Q, the interval in days (D) or hours (H), X, the number of doses. Additions like (4×) say how often a value occurs here. For survival time, this PubChem deposit counts one and a half times the control or more as active, and values a quarter to a half above the control carry no call in these data; other NCI protocols may use other cut-offs. Some T/C values are followed by the survivors on the day toxicity was checked, most often the fifth; where none is given, no animal had died by that day. Numbered stars: 1 amine (or outer) side, 2 acyl side, 3 side chain; on linkers, the order of the positions; unused ones are H or OH. Bridge positions count the residues as written; N and C are the ends. Square brackets hold non-standard residues; d marks the D form. Peptide text beside a SMILES is read from it. I, II: the chains in the order shown. Actinocin(9to1) = Cc1c2oc3c(C)ccc(C(=O)[*:1])c3nc-2c(C(=O)[*:2])c(N)c1=O; X2 = O=C(C1CC(Cl)CN1[*:1])[*:2]; NMeV = CN[CH](C(=O)O)C(C)C; Sar = CNCC(=O)O

System: BDF1 mice, B16 melanoma ip, median survival T/C
Test: NCI In Vivo Anticancer Drug Screen. Data for tumor model B16 Melanoma (intraperitoneal) in B6D2F1 (BDF1) mice
Conditions: T/C endpoint: median survival time, higher T/C = longer survival
Experimental: The antitumor activity of compounds was measured in mice bearing transplantable tumors. Survival or tumor size were measured and the results are expressed as the measurement made in the treated group (T) divided by the measurement made in the vehicle treated control group (C). The tumor model used in this assay is B16 Melanoma (intraperitoneal) in B6D2F1 (BDF1) mice

[1] = dose: 12.5 mg/kg/injection, schedule: Q01DX009 (ip), vehicle: Klucel (hydroxypropylcellulose) (HPC)
[2] = dose: 50.0 mg/kg/injection, schedule: Q01DX009 (ip), vehicle: Klucel (hydroxypropylcellulose) (HPC)
[3] = dose: 100.0 mg/kg/injection, schedule: Q01DX009 (ip), vehicle: Klucel (hydroxypropylcellulose) (HPC)
[4] = dose: 200.0 mg/kg/injection, schedule: Q01DX009 (ip), vehicle: Klucel (hydroxypropylcellulose) (HPC)
[5] = dose: 400.0 mg/kg/injection, schedule: Q01DX009 (ip), vehicle: Klucel (hydroxypropylcellulose) (HPC)
[6] = dose: 3.0 mg/kg/injection, schedule: Q01DX009 (ip), vehicle: saline
[7] = dose: 6.0 mg/kg/injection, schedule: Q01DX009 (ip), vehicle: saline
[8] = dose: 50.0 mg/kg/injection, schedule: Q01DX009 (ip), vehicle: saline with Tween-80
[9] = dose: 100.0 mg/kg/injection, schedule: Q01DX009 (ip), vehicle: saline with Tween-80
[10] = dose: 160.0 mg/kg/injection, schedule: Q01DX009 (ip), vehicle: water
[11] = dose: 200.0 mg/kg/injection, schedule: Q01DX009 (ip), vehicle: saline with Tween-80
[12] = dose: 25.0 mg/kg/injection, schedule: Q01DX009 (ip), vehicle: saline
[13] = dose: 200.0 mg/kg/injection, schedule: Q01DX009 (ip), vehicle: saline
[14] = dose: 400.0 mg/kg/injection, schedule: Q01DX009 (ip), vehicle: saline
[15] = dose: 6.25 mg/kg/injection, schedule: Q01DX009 (ip), vehicle: saline

CCOC(=O)C(Br)C(=O)OCC
survivor count (dose: 9.37 mg/kg/injection, schedule: Q04DX003 (ip), vehicle: saline): 10 of 10 | survivor count (dose: 18.75 mg/kg/injection, schedule: Q04DX003 (ip), vehicle: saline): 10 of 10 | survivor count (dose: 37.5 mg/kg/injection, schedule: Q04DX003 (ip), vehicle: saline): 8 of 10 | survivor count (dose: 75.0 mg/kg/injection, schedule: Q04DX003 (ip), vehicle: saline): 4 of 10

CCCCCCCCOc1ccc(C(=O)c2ccccc2)c(O)c1
survivor count (dose: 1.5 mg/kg/injection, schedule: Q01DX009 (ip), vehicle: Klucel (hydroxypropylcellulose) (HPC)): 10 of 10 | survivor count (dose: 3.0 mg/kg/injection, schedule: Q01DX009 (ip), vehicle: Klucel (hydroxypropylcellulose) (HPC)): 10 of 10 | survivor count [1]: 10 of 10 | survivor count (dose: 25.0 mg/kg/injection, schedule: Q01DX009 (ip), vehicle: Klucel (hydroxypropylcellulose) (HPC)): 10 of 10 | survivor count [2]: 10 of 10 | survivor count [3]: 10 of 10 | survivor count [4]: 10 of 10 | survivor count [5]: 10 of 10 | survivor count (dose: 400.0 mg/kg/injection, schedule: Q04DX003 (ip), vehicle: Klucel (hydroxypropylcellulose) (HPC)): 9 of 9

O=S(=O)(O)O.[W]
survivor count [6]: 9 of 10 (2×) | survivor count [7]: 10 of 10 (2×)

Cn1c(N)c(N=O)c(=O)n(C)c1=O
survivor count (dose: 720.0 mg/kg/injection, schedule: Q01DX009 (ip), vehicle: saline with Tween-80): 5 of 10

O=C1C(=O)c2ccccc2C(O)=C1CCCc1ccc(C2CCCCC2)cc1
survivor count (dose: 6.25 mg/kg/injection, schedule: Q01DX009 (ip), vehicle: saline with Tween-80): 10 of 10 | survivor count (dose: 12.5 mg/kg/injection, schedule: Q01DX009 (ip), vehicle: saline with Tween-80): 10 of 10 | survivor count (dose: 25.0 mg/kg/injection, schedule: Q01DX009 (ip), vehicle: saline with Tween-80): 10 of 10 | survivor count [8]: 10 of 10 | survivor count [9]: 5 of 10

C[As](C)Sc1ccnc(S[As](C)C)n1
survivor count [4]: 2 of 10

C#CC(OC(=O)NC1CCCCC1)(c1ccccc1)c1ccccc1
T/C [8]: 127 % of control | survivor count [9]: 8 of 9

COc1cc2c3cc1Oc1c(O)c(OC)cc4c1[C@H](Cc1ccc(cc1)Oc1cc(ccc1O)C[C@H]3N(C)CC2)N(C)CC4
T/C [10]: 141 % of control [9 of 10 alive] | survivor count [10]: 10 of 10 | survivor count [11]: 10 of 10

O=C1C=CC(=O)N1c1ccc2c(c1)oc(=O)c1ccccc12
survivor count [3]: 10 of 10 | survivor count [4]: 9 of 10

CC(=O)CCN1C(=O)c2ccccc2C1=O
survivor count [3]: 10 of 10 | T/C [5]: 144 % of control | survivor count [5]: 6 of 10

Cc1ccc(NC(=O)Oc2ccc(Br)cc2Br)c([N+](=O)[O-])c1
survivor count [9]: 10 of 10 | survivor count [11]: 10 of 10 | survivor count (dose: 400.0 mg/kg/injection, schedule: Q01DX009 (ip), vehicle: saline with Tween-80): 10 of 10

Cc1c2oc3c(C)ccc(C(=O)NC4C(=O)NC(C(C)C)C(=O)N5CC(Cl)CC5C(=O)N(C)CC(=O)N(C)C(C(C)C)C(=O)OC4C)c3nc-2c(C(=O)NC2C(=O)NC(C(C)C)C(=O)N3CC(Cl)CC3C(=O)N(C)CC(=O)N(C)C(C(C)C)C(=O)OC2C)c(N)c1=O (stereo unspecified) (I: TV[X2][Sar][NMeV] / II: TV[X2][Sar][NMeV]; ester I:1-I:C, II:1-II:C; linker I:N-II:N via Actinocin(9to1); configuration not given here)
T/C (dose: 648.0 micrograms/kg/injection, schedule: Q04DX003 (ip), vehicle: saline + alcohol): 144 % of control | survivor count (dose: 3000.0 micrograms/kg/injection, schedule: Q04DX003 (ip), vehicle: saline + alcohol): 8 of 8 | survivor count (dose: 5000.0 micrograms/kg/injection, schedule: Q04DX003 (ip), vehicle: saline + alcohol): 3 of 8

CN1CCC=C(C(=O)N2c3ccccc3Sc3ccc(Cl)cc32)C1
survivor count [12]: 8 of 10

ClC(Cl)(Cl)C(Nc1ccccc1)Nc1ccccc1
survivor count [1]: 10 of 10

CN(C)CCN1c2ccccc2Sc2ccccc21
survivor count [13]: 3 of 10 | survivor count [14]: 0 of 10

NC(=O)c1ccc[n+](Cc2c(Cl)cccc2Cl)c1
T/C [7]: 127 % of control

NNc1ncnc2nc[nH]c12
T/C [15]: 130 % of control | survivor count (dose: 50.0 mg/kg/injection, schedule: Q01DX009 (ip), vehicle: saline): 4 of 10 | survivor count (dose: 100.0 mg/kg/injection, schedule: Q01DX009 (ip), vehicle: saline): 0 of 10 | survivor count [13]: 0 of 10 | survivor count [14]: 0 of 10

O=C(NC(Cc1ccccc1)C(=O)CCl)OCc1ccccc1 (stereo unspecified)
survivor count [2]: 7 of 10

Cc1c(CNc2ccc(C(=O)NC(CC(=O)O)CC(=O)O)cc2)ccc2nc(N)nc(N)c12
survivor count (dose: 0.5 mg/kg/injection, schedule: Q01DX009 (ip), vehicle: saline with Tween-80): 10 of 10 | survivor count (dose: 0.75 mg/kg/injection, schedule: Q01DX009 (ip), vehicle: saline): 10 of 10 | survivor count (dose: 1.0 mg/kg/injection, schedule: Q01DX009 (ip), vehicle: saline with Tween-80): 10 of 10 | survivor count (dose: 1.5 mg/kg/injection, schedule: Q01DX009 (ip), vehicle: saline): 10 of 10 | survivor count [6]: 10 of 10

c1cc2c(c(CC3CO3)c1CC1CO1)OCCOCCOCCOCCO2 (stereo unspecified)
T/C (dose: 200.0 mg/kg/injection, schedule: Q01DX009 (ip), vehicle: saline + Tween-80 + alcohol): 144 % of control | survivor count (dose: 400.0 mg/kg/injection, schedule: Q01DX009 (ip), vehicle: saline + Tween-80 + alcohol): 3 of 10

CCCCCC(O)C1C(=O)OC(C)C(O)/C=C/C=C/C=C/C=C/C=C(\C)C(O)C(O)C(O)CC(O)CC(O)CC(O)CC(O)CC1O (stereo unspecified)
T/C (dose: 2.67 mg/kg/injection, schedule: Q01DX009 (ip), vehicle: saline): 144 % of control | T/C (dose: 4.0 mg/kg/injection, schedule: Q01DX009 (ip), vehicle: saline): 127 % of control | T/C [7]: 134 % of control | survivor count [15]: 6 of 10 | T/C (dose: 8.0 mg/kg/injection, schedule: Q01DX009 (ip), vehicle: saline): 135 % of control | survivor count (dose: 12.5 mg/kg/injection, schedule: Q01DX009 (ip), vehicle: saline): 0 of 10 | survivor count [12]: 0 of 10

CCN(CC)CCCCNc1ccc(NCCCCN(CC)CC)c2c1C(=O)c1ccccc1C2=O
survivor count [9]: 5 of 10 | survivor count [11]: 0 of 10

CC1(C)N=C(N)N=C(N)N1c1ccc(CCCCc2ccc(Cl)c(S(=O)(=O)F)c2)c(Cl)c1
survivor count (dose: 27.0 mg/kg/injection, schedule: Q01DX009 (ip), vehicle: saline): 5 of 6 | survivor count (dose: 40.0 mg/kg/injection, schedule: Q01DX009 (ip), vehicle: saline): 0 of 6

Cc1cc(=O)n2c3c(c(N)ccc13)OC2
survivor count [5]: 10 of 10

CNC(Cc1ccccc1)c1ccc(OC)cc1 (stereo unspecified)
survivor count [4]: 7 of 10

Cc1ccc(C#N)s1
survivor count (dose: 50.0 mg/kg/injection, schedule: Q01DX009 (ip), vehicle: other): 2 of 10

Cn1c(O)c(C=N)c(=O)[nH]c1=O
survivor count (dose: 150.0 mg/kg/injection, schedule: Q01DX009 (ip), vehicle: Klucel (hydroxypropylcellulose) (HPC)): 10 of 10
